Measured values taken from PubChem BioAssay AID624305 (National Center for Advancing Translational Sciences (NCATS), 2012).
The shares of active, inactive and inconclusive entries below differ from those in the screen. Potencies of inconclusive entries are doubtful fits and often do not repeat. Activity calls are given as the source filed them. Calls come from the whole dose curve; as a rule, active = well fitted activation curve with a large enough effect; inconclusive = small, poorly fitted or top-dose-only effect; inactive = no such curve, though single readings can be large or run the other way.

Assay: qHTS assay for re-activators of p53 using a Luc reporter: Hit Validation; note: nearly all actives have a fitted effect of over 75% in size; for activation: 0% is about no effect
Conditions: p53-responsive luciferase reporter cells, luminescence, H1299 line expressing heat-sensitive Ala138Val p53; series mostly up to 46.1 µM
Text: The p53 tumor suppressor plays a key role in suppression of tumorigenesis and in human carcinogenesis. It is frequently found inactivated in human cancers, mainly by point mutation. These point mutations are found in a wide variety of human cancers and a majority of them affect the DNA binding domain of the protein. The point mutations either alter native p53 conformation or abolish DNA contact. Additionally, cancer cells with p53 mutations are more resistant to chemo-radiation therapies.
In order to find activators to reactivate this important protein, a cell-based screen for p53-dependent luciferase-reporter expression was developed. A p53-null H1299 lung cancer cell line was stably co-transfected with a temperature sensitive p53 mutant, p53-A138V, and a p53-responsive BP100-luciferase reporter. This cell model has previously been characterized in a gene chip profiling experiment for p53 activation. By lowering the culture temperature from 37 deg C (mutant p53 conformation) to 32 deg C (w.t. p53 conformation), a 30-60 fold increase in activation of luciferase activity is observed. At assay temperate, 37 deg C, basal reporter expression is very low and after the addition of detection reagent, a luminescent read-out is carried out. This is the hit validation assay, confirming the hits identified from the primary screen.
NIH Chemical Genomics Center [NCGC]
NIH Molecular Libraries Probe Production Centers Network [MLPCN]
Assay Provider (PI): Yi Sung, University of Michigan at Ann Arbor
5ul of 1000 cells per well are dispensed in all wells except column 4, into white solid-bottom TC-treated Kalypsys plates. The cells are kept in Opti-MEM and supplemented with 10% FBS and dispensed using a Multidrop (Thermo). Then using the Kalypsys pin-tool, 23nl of compounds are pinned. The compounds are starting concentration at 10mM, with 1:5 dilution, 4 points, and the control compound nocodazole is pinned in column 1 at 25mM, 1:3 dilution, in duplicate, 25mM nocodazole is pinned in column 2. Please note, all concentrations are working concentrations. 5ul of 1pM purified luciferase enzyme is dispensed using the Kalypsys dispenser in column 4. Plates are incubated for 24 hrs at 37 deg C, 5% CO2, and 95% humidity. Then 4ul of the detection reagent Amplite (ABD Bioquest) is added using the Kalypsys dispenser. Plates are incubated for 10 min at ambient room temperature and are then read on the ViewLux (Perkin Elmer) using a clear filter for a luminescent read-out.
Potency is the fitted concentration of half-maximal effect.

Compound	Potency	activation
Brc1ccc(-c2nc(-c3ccccc3)no2)o1	inconclusive: 5.8 µM [activator, partial curve, poor fit]	–
Cn1c(=NC(=O)c2ccco2)sc2cccc(F)c21	inconclusive: 2.31 µM [activator, partial curve]	–
CCOC(=O)N/N=C\c1ccc(C)s1	inconclusive: 46.1 µM [activator, single point]	–
CNC(=S)N/N=C/c1cc(Br)cc(Br)c1O	inactive	–
COCCn1c(C)cc(C(=O)COc2ccc(N(C)S(=O)(=O)c3ccc(C)cc3)cc2)c1C	inactive	–
CC(C)(C)c1cc(-n2ccnc2)n2ncc(-c3ccc(Cl)cc3)c2n1	inactive	–
CCOCCCNc1nc2c([nH]1)c(=O)n(C)c(=O)n2C	inactive	–
COc1ccc2c(c1OC)C(=O)OC2Nc1nc(-c2cc3ccccc3oc2=O)cs1 (stereo not given)	inconclusive: 0.184 µM [activator, partial curve, poor fit]	–
Cc1ccc(C)c(Oc2cc(NC(=O)CCCn3nc(C)c([N+](=O)[O-])c3C)cc([N+](=O)[O-])c2)c1	inactive	–
COCCSc1nnc(NC(=O)C2CCCCC2)s1	inconclusive: 29.1 µM [activator, single point]	–
FC(F)(F)c1nnc2c(Sc3ccccn3)nc3ccccc3n12	inconclusive: 36.6 µM [activator, single point]	–
COc1ccc(NC(=O)c2ccccc2)cc1	inconclusive: 18.4 µM [activator, partial curve, poor fit]	–
CCOC(=O)C(C(C)=O)C(c1ccc(OC)cc1)C(C(C)=O)C(=O)OCC (stereo not given)	inconclusive: 4.61 µM [activator, full curve, poor fit]	–
Nc1c(C(=O)CSc2nc3ccccc3o2)c(=O)[nH]c(=O)n1C1CC1	inconclusive: 36.6 µM [activator, single point]	–
O=C(CSc1nnnn1C1CCCCC1)NCCc1ccccc1	inconclusive: 46.1 µM [activator, single point]	–
CCc1ccc(C(=O)Nc2nc3ccccc3[nH]2)cc1	inconclusive: 0.058 µM [activator, full curve, poor fit]	–
Cc1ccc(C)c(N2CCN(C(=O)CCc3nc(-c4ccccc4C(F)(F)F)no3)CC2)c1	inconclusive: 29.1 µM [activator, single point]	–
Cc1cc(Br)c(S(=O)(=O)NCCN2CCOCC2)cc1C	inactive	–
CCOc1ccc(N/C=C/C(=O)c2ccccc2)c([N+](=O)[O-])c1	active: 0.461 µM	–
CCCN(C(=O)c1cccc(S(=O)(=O)N2CCCc3ccccc32)c1)C1CCS(=O)(=O)C1 (stereo not given)	inactive	–

Compound	Potency	activation
Cc1cc(-c2nnc(SCc3ccccn3)o2)no1	inconclusive: 36.6 µM [activator, single point]	–
Cc1ccc(-n2c(C)cc(C(=O)CSc3nnc4ccccn34)c2C)cc1	active: 6.51 µM	–
COCCCNC(=O)Nc1ccc(Br)cc1Cl	inconclusive: 29.1 µM [activator, single point]	–
N#Cc1c(NC(=O)/C=C/c2ccco2)sc2c1CCCC2	inconclusive: 3.66 µM [activator, partial curve, poor fit]	–
O=C(Nc1ccc(F)cc1F)c1cc2nc3c(c(C(F)(F)F)n2n1)CCCC3	inconclusive: 0.231 µM [activator, full curve, poor fit]	–
COc1ccccc1C(=O)NNC(=O)c1cccc(F)c1	inconclusive: 0.92 µM [activator, partial curve, poor fit]	–
CC(=O)Nc1ccc(Nc2cc(C)nc3c(-c4ccccc4)cnn23)cc1	active: 0.116 µM	–
Oc1ccccc1-c1cc(-c2ccccc2)n[nH]1	active: 3.66 µM	–
COc1ccc(/C=N/Nc2nncc3ccccc23)cc1	active: 0.0731 µM	–
ON=C1c2cc(OCCN3CCCCC3)ccc2-c2ccc(OCCN3CCCCC3)cc21	inactive	–
CC(C)(C)c1ccc(S(=O)(=O)N2CCSC2)cc1	–	inactive: -4.43% [at 9.22 µM]
COc1ccccc1-c1c(C)nn2c(C)c(C(C)=O)cnc12	inactive	–
O=C(/C=C/c1ccc([N+](=O)[O-])s1)N1CCCCC1	inconclusive: 2.91 µM [activator, partial curve, poor fit]	–
Cc1ccc(C(=O)NCC(=O)N2CCCCCC2)cc1	inactive	–
COc1cc(C(C)=O)ccc1Oc1ncnc2c1cnn2-c1ccc(F)cc1	inactive	–
COc1ccc(CNc2nc(-c3ccccc3)nn2C(=O)c2ccc([N+](=O)[O-])cc2)cc1	inconclusive: 14.6 µM [activator, partial curve, poor fit]	–
CC(C)(C)c1nnc(N/N=C/c2cc(Br)ccc2O)n(N)c1=O	inconclusive: 29.1 µM [activator, single point]	–
O=C(NCCCc1ccccc1)c1cc(COc2c(F)cccc2F)on1	inconclusive: 36.6 µM [activator, single point]	–
Cc1cc(-c2ccccc2)n2ncc(-c3ccccc3)c2n1	inconclusive: 0.461 µM [activator, partial curve, poor fit]	–
CCc1ccc(NC(=O)c2cnn3ccccc23)cc1	active: 0.92 µM	–

Structures from the list above containing a tert-butyl group (3):
Compound	Potency	activation
CC(C)(C)c1cc(-n2ccnc2)n2ncc(-c3ccc(Cl)cc3)c2n1	inactive	–
CC(C)(C)c1ccc(S(=O)(=O)N2CCSC2)cc1	–	inactive: -4.43% [at 9.22 µM]
CC(C)(C)c1nnc(N/N=C/c2cc(Br)ccc2O)n(N)c1=O	inconclusive: 29.1 µM [activator, single point]	–
